Percent effect of library compounds

Data taken from ChEMBL document CHEMBL3988442, “University of Dundee, Small-Polar-MMV Screening Library” (2021).

T. brucei: 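Whole-parasite assay of Trypanosoma brucei over 72 hours; the read-out is not stated. Concentration: 30 µM. Higher reads as stronger inhibition (inferred: compounds with an IC50 in retests scored well above the rest). Values scatter widely below zero; nearly all retest evidence comes from the higher of the two concentrations used. About 64,000 compounds were tested under these conditions; 1.5% (about 940) showed 50% or more at least once.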
Toxoplasma: 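Assay of Toxoplasma gondii numbers, read through their beta-galactosidase reporter with a colour substrate. Compounds at 10 µM. The record gives no direction; the compounds picked for IC50 retests had high values, so higher reads as fewer parasites. Size under these conditions: about 67,000 compounds, about 260 of them at 50% or above in at least one test.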

The filed quantity is “Percent Effect” (%).
The controls that fix the scale are not given in the record; negative values are as filed.
Compounds were drawn at random from those tested, without regard to their results.

OC1CCCN(Cc2c(-c3ccco3)[nH]c3ncccc23)C1 (stereo not drawn) read T. brucei: 11.87%; Toxoplasma: 18.64%. With Cc1nc(N2CCOCC2)nc2c1CN(C(=O)Cc1ccccn1)CC2 the screen gave T. brucei: -0.9485%; Toxoplasma: 9.442%. Cc1ccc(CN2CCC3(CC2)CCN(Cc2ccco2)CC3)cc1.O=C(O)C(F)(F)F.O=C(O)C(F)(F)F read T. brucei: 26.08%; Toxoplasma: 14.14%. Result for O=C(O)C(F)(F)F.[H][C@@]12CCN(S(=O)(=O)C3CC3)[C@@]1([H])CCN2Cc1ccc(C)s1 was T. brucei: -21.47%; Toxoplasma: 3.347%. For CS(=O)(=O)CCNCc1ccc(OCc2ccncc2)cc1 the result was T. brucei: 5.666%; Toxoplasma: 2.195%.

For O=C(Cc1ccc2c(c1)CCO2)N1CCCCC1Cn1cccn1 (stereo not drawn) the result was T. brucei: 18.97%; Toxoplasma: -2.363%. NC(=O)CCn1cc(CNCc2csc(N)n2)c2ccccc21 read T. brucei: -12.38%; Toxoplasma: -15.04%. With CC(NC(N)=O)C(=O)N1CCCN(Cc2nccn2C(C)C)CC1 (stereo not drawn) the screen gave T. brucei: -11.82%; Toxoplasma: -2.643%. CCc1noc(C)c1-c1nc(Cc2cccs2)nn1C1CCN(C)CC1 gave T. brucei: -57.15%; Toxoplasma: 5.978%. For Cc1n[nH]c(C)c1CC(=O)NCc1ccccc1Cl the result was T. brucei: -15.89%; Toxoplasma: 1.716%.

O=C(C1CCCC1)N1CCn2c(nnc2C2CCCNC2)C1 (stereo not drawn) read Toxoplasma: 5.373%. CN(CCc1ccccc1)c1cnn(Cc2ccccn2)c(=O)c1 gave T. brucei: 10.6%; Toxoplasma: -5.014%. For CN1CC(c2ccccc2)CC2(CCN(Cc3ncc[nH]3)CC2)C1 (stereo not drawn) the result was T. brucei: -26.98%; Toxoplasma: 6.09%. COc1ccccc1CC(=O)N1CCC(NCc2cc[nH]c2)CC1 gave T. brucei: -11.57%; Toxoplasma: -0.9693%. Result for Cc1nc(-c2cc(Cl)cc3c2OC(CN)C3)c[nH]1 (stereo not drawn) was T. brucei: -36.25%; Toxoplasma: -4.357%.

CCOc1ncccc1NC(=O)NC1CCCN(S(C)(=O)=O)C1 (stereo not drawn) read Toxoplasma: 27.15%. CN(Cc1cnc(N)nc1)C(=O)c1coc(COc2ccccc2)n1 gave T. brucei: 23.9%; Toxoplasma: 1.438%. For O=C(O)C(F)(F)F.O=C(O)C(F)(F)F.c1ccc(CN2CCc3ncnc(-c4ccncc4)c3CC2)nc1 the result was T. brucei: -13.05%; Toxoplasma: 5.428%. With OCCn1nccc1C1CCN(CCOc2ccccc2F)CC1 the screen gave T. brucei: 13.52%; Toxoplasma: -0.2529%. CC1CN(C(=O)c2ccc(C(N)=O)cc2)c2ccc(F)cc2O1 (stereo not drawn) gave T. brucei: -3.178%; Toxoplasma: -4.204%.

For CC(=O)N1CCCC2(C1)CN(c1ncc(C)cn1)CCO2.O=C(O)C(F)(F)F (stereo not drawn) the result was Toxoplasma: -16.04%. CCc1oc2ccc(NS(=O)(=O)CC)cc2c1C(=O)OC read T. brucei: -15.54%; Toxoplasma: -41.26%. For COc1ccc2c(c1)C(=O)N(C)C1(CCN(C(=O)OC(C)(C)C)CC1)N2 the result was T. brucei: -42.79%; Toxoplasma: 1.705%. Result for COC(=O)C1CCN(C(=O)c2ccc(N(C)S(C)(=O)=O)c(C)c2)CC1 was T. brucei: 32.4%; Toxoplasma: -2.39%. N#Cc1ccc(N2CCCN(c3nccs3)CC2)nc1 gave T. brucei: -51.1%; Toxoplasma: 1.667%.

Cc1ccc(NC2CCN(C(=O)c3cc4c(s3)CCC4)CC2)nn1 read T. brucei: -2.137%; Toxoplasma: 6.29%. CCNC(=O)C1CCN(Cc2ccc(C(=O)Nc3nnc(C)s3)cc2)C1 (stereo not drawn) read T. brucei: 44.46%; Toxoplasma: -11.04%. CC(C)CNC(=O)c1ccc2nnc(C3CCN(S(C)(=O)=O)C3)n2c1 (stereo not drawn) read T. brucei: 2.328%; Toxoplasma: -24.54%. Cn1ccnc1CN1CCCN(C(=O)c2ccc3cc[nH]c3c2)CC1 gave T. brucei: -19.93%; Toxoplasma: -2.746%. Result for Cc1nc(C2(NCc3cc(C#N)ccc3F)CCCCC2)no1 was T. brucei: -51.99%; Toxoplasma: 13.72%.

For Cc1cc(=O)n2ncnc2n1CC(O)c1ccc(F)cc1F (stereo not drawn) the result was T. brucei: -46.21%; Toxoplasma: 14.64%. With CC(C)(C)c1nc(CN(Cc2cccnc2)C2CN3CCC2CC3)no1 (stereo not drawn) the screen gave T. brucei: 1.994%; Toxoplasma: 1.627%. Result for CCCn1nc(-c2nc(COC)no2)ccc1=O was T. brucei: -11.01%; Toxoplasma: -30.96%.

Once more, the final 4:

structure	T. brucei	Toxoplasma
Cc1nc(C2(NCc3cc(C#N)ccc3F)CCCCC2)no1	-51.99%	13.72%
Cc1cc(=O)n2ncnc2n1CC(O)c1ccc(F)cc1F (stereo not drawn)	-46.21%	14.64%
CC(C)(C)c1nc(CN(Cc2cccnc2)C2CN3CCC2CC3)no1 (stereo not drawn)	1.994%	1.627%
CCCn1nc(-c2nc(COC)no2)ccc1=O	-11.01%	-30.96%